Experimental data published in US11964025 (dated 2024).

Assay: general procedure: solution-phase peptide synthesis; EDC/NHS; HATU/HOAt/DIEA; EDC/HOAt
Conditions: conjugation step

Substance: Bis-Glucamine Scaffold 75
- conjugation yield: yield 82%
